Screening data, single-dose tests

Protein sequences, listed by entry. Tags and fused reporters are not part of them. Residues count along the entry.
UniProt P9WNZ1, whole entry: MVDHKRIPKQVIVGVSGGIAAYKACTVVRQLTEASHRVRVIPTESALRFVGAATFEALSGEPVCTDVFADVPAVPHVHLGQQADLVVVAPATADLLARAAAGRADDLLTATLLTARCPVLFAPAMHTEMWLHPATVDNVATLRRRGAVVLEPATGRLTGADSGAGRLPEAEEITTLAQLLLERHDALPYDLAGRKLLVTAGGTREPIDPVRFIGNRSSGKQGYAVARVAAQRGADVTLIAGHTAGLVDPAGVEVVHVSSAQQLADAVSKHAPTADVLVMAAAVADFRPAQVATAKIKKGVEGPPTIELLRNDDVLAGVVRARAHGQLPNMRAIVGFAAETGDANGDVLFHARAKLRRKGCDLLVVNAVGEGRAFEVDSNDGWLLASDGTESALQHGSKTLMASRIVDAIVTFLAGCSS
UniProt Q8IDJ8, 1-583: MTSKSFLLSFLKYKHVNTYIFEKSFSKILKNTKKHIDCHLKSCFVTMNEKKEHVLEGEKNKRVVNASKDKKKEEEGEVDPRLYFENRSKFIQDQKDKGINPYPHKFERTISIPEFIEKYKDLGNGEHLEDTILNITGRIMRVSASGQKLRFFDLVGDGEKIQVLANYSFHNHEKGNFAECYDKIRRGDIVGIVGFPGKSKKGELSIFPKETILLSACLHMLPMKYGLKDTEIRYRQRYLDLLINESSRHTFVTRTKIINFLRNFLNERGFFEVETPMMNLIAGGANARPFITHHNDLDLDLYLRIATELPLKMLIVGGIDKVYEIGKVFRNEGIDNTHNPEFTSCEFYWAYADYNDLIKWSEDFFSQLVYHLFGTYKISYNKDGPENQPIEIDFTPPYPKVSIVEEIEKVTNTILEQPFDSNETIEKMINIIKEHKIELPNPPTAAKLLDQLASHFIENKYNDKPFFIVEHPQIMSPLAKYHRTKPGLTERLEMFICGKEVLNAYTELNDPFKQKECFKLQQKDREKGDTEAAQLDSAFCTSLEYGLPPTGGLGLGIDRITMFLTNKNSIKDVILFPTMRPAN
UniProt A4I591, 1-473: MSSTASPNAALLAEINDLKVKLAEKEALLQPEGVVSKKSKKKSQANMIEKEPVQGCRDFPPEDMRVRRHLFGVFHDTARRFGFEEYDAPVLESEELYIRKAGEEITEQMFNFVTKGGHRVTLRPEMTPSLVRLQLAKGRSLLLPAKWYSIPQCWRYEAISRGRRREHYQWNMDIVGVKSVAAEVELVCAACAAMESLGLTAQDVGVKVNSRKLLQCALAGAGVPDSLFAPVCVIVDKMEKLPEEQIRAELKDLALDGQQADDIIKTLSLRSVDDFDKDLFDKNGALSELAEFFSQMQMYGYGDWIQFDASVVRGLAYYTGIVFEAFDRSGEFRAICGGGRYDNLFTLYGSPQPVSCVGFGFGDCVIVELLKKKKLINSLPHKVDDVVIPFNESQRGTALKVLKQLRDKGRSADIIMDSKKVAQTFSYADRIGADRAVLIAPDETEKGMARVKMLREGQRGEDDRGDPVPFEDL

Measurements from “University of Dundee, Small-Polar-MMV Screening Library” (2021), ChEMBL document CHEMBL3988442.

A: 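Enzyme assay of CoaBC with a phosphate dye (Biomol Green) read at 650 nm. Target: Coenzyme A biosynthesis protein CoaBC, Mycobacterium tuberculosis (UniProt P9WNZ1). Tested at 30 µM. Direction is inferred from only a few compounds that gave an IC50; most scored high, so higher reads as stronger inhibition. Most strong results did not repeat in a second test. Of about 67,000 compounds tested this way, about 40 (0.06%) reached 50% or more in at least one test.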
B: 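Enzyme assay of the cytosolic lysyl-tRNA synthetase in 384-well plates, read by luminescence. Target: Lysine-tRNA ligase, Plasmodium falciparum 3D7 (UniProt Q8IDJ8). Concentration: 30 µM. Higher reads as stronger inhibition, judged from the few compounds that gave an IC50. Size under these conditions: about 69,000 compounds, about 49 of them at 50% or above in at least one test.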
C: 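Enzyme assay of histidyl-tRNA synthetase; the read-out is not stated. Target: Histidine-tRNA ligase, Leishmania infantum (UniProt A4I591). Tested at 30 µM. The record gives no direction; compounds that gave an IC50 in retests scored well above the rest, so higher reads as stronger inhibition. The assay is labelled LdHisRS but filed under L. infantum. About 69,000 compounds were tested under these conditions; 0.6% (about 410) showed 50% or more at least once.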

The filed quantity is “Percent Effect” (%). The controls that fix the scale are not given in the record; negative values are as filed. The compounds are a random part of those screened. Two or more numbers in one place are separate tests of the same structure; such repeats can differ widely. A dash means the value is not listed here; it may have been measured.

Compound,A,B,C
CC(C)(C)c1nccc(C2(c3ccccc3Cl)CCNCC2)n1,2.03,0.6941,27.06
CS(=O)(=O)c1ccc(NCC2CCCO2)c(S(C)(=O)=O)c1 (stereo unspecified),3.69,0.8605,19.51
CN(C)c1cc(CNC(=O)Nc2nnc(C3CC3)s2)ccn1,-9.92,0.268,17.09
CCC(C)(C)NC(=O)CSCc1ccc(S(=O)(=O)N(C)C)o1,4.622,-1.97,9.402
CN(CC(=O)N1CC(C)(C)[C@](O)(C2CC2)C1)Cc1cccnc1,-6.8,3.498,5.128
CN(Cc1ccc2nsnc2c1)CC1(O)CNCCOC1 (stereo unspecified),-5.703,6.877,5.882
COC(=O)c1cccc(S(=O)(=O)NC(=O)CC2CCCC2)c1,-,-2.61,-4.225
CN(C)CCN1C(=O)CCC12CCCN(C(=O)C1CC=CC1)CC2 (stereo unspecified),5.792,3.656,25
Cc1cc(Br)oc1C(=O)N1CCN(CC(N)=O)CC1,1.711,5.605,8.065
O=C1CCCc2occ(C(=O)N3CCCC4(CCNC4)C3)c21 (stereo unspecified),-,7.556,22.86
CCn1nc(C)c2nnn(CC(=O)Nc3ccccc3)c(=O)c21,-16.17,2.051,17.24
NC(=O)C1CN(Cc2c[nH]cn2)CCN(C2CCOCC2)C1 (stereo unspecified),0,4.685,16.67
Cc1ccc(CN2CCCC3(COCCN(Cc4c[nH]nn4)C3)C2)o1 (stereo unspecified),-3.173,-0.8543,13.21
CCOCCn1nc(C)cc1C(=O)N1CCN(C(C)C)C(CC)C1 (stereo unspecified),-5.757,1.133,23.08
NC1(c2nc(-c3ccccc3)cc(=O)[nH]2)CCCC1,-2.233,1.757,5
CN(C)C(=O)CN1CCC2(CCCN(Cc3cccnc3)C2)C1=O (stereo unspecified),1.854,1.963,15
Cc1ncsc1CNC(=O)N(Cc1ccccc1)CC(C)(C)O,0.6329,5.046,3.896
CO[C@H]1CCN(C2CCOCC2)C[C@@H]1Cc1ccccc1,0.5089,2.248,7.767
COc1ccc(OC)c(C2CCN(C3CCN(C(C)=O)CC3)C2)c1 (stereo unspecified),0.9153,-0.466,23.94
CNC(=O)CC1CC2(CCN(CC3CC3)CC2)Oc2ccccc21 (stereo unspecified),4.247,4.829,15.38
CC(C)n1nc(CNc2ncccn2)c2c1CN(C1CCOCC1)CC2,2.415,-1.329,15.15
CC(C)N(C)CC(=O)N(C)Cc1nc(C(F)(F)F)cs1,7.004,7.87,8.108
Cn1nc(CO)c2c1CCN(c1ncnc3c1CCNC3)C2,4.183,4.975,21.52
CNS(=O)(=O)c1cccc(CNC(=O)c2cc(C)no2)c1,-5.094,-1.179,13.68
Cc1ccc2nc(C)cc(C(=O)NCc3csc(N(C)C)n3)c2c1,6.79,1.029,7.527
Cc1cc(CN2CCN(C(=O)NC(C)c3ccncc3)CC2)on1 (stereo unspecified),9.506,-0.4737,16.07
Cc1noc(CN(CCc2cccs2)Cc2cccc(C#N)c2)n1,5.665,4.549,16.07
CCCS(=O)(=O)NC(=O)c1ccc(CC)o1,-1.071,-0.234,6.897
COc1cc(C)sc1C(=O)NCCNc1ccccc1,-5.696,1.112,-1.299
COc1ncc(C)cc1NC(=O)CCc1ccccn1,-1.621,6.647,39.68
O=C(NCc1ccc(OCC2CC2)nc1)Nc1c(F)cccc1F,1.053,-6.075,7.547
CCN(CC(C)C#N)C(=O)CNc1ccc(F)c(C)c1 (stereo unspecified),9.764,-1.713,5.319
CCC(CNC1CCN(C(C)=O)CC1)Oc1ccccc1Cl (stereo unspecified),-5.072,3.986,21.21
Cc1cnn(CCNCC(O)c2ccc3c(c2)OCCO3)c1 (stereo unspecified),2.232,4.327,5.208
Cc1cn2c(n1)CCC(NC(=O)CCCn1cncn1)C2 (stereo unspecified),1.66,0.7091,11.61
CC(=O)NCc1cccc(-n2ccnc2-c2cccc(C(=O)O)c2)c1,3.836,7.484,37.7
CC(=O)c1ccc(C(=O)NCc2ccnc(N(C)C)n2)cc1,3.586,7.19,10.96
Cc1cccc(CNC(=O)N(CCCO)C2CCc3ccccc32)n1 (stereo unspecified),4.545,-2.095,5.357
CC(C)CNC(=O)c1ccc(NC(=O)NCC2CC2)cc1Cl,8.333,6.689,8.036
COc1ccc(CNC[C@H]2COCc3nc4cc(F)ccc4n32)cn1,2.935,1.431,22.22
CC(C(=O)N1CCCN(c2ccccc2C#N)CC1)n1cccn1 (stereo unspecified),1.149,0.601,15.18
N#CC1(NC(=O)CN2CCc3c(ncn3C3CC3)C2)CCCC1,3.067,4.804,11.76
Cc1c[nH]nc1C1CCN(c2cnccn2)C1 (stereo unspecified),8.134,-1.765,10.07
CCN(CC)c1ncccc1CNCc1ccc(-c2ccn[nH]2)s1,10.03,0.71,5.882
O=C(Cn1cccc1)NCC1CCN(Cc2cc3ccccc3[nH]2)C1 (stereo unspecified),2.545,2.825,30.77
Cc1cnn(CC2CCCN2C(=O)c2csc(C3CC3)n2)c1 (stereo unspecified),0.2611,-0.4741,11.5
Nc1cc(C(=O)NCC2CCN(Cc3cccc(O)c3)C2)ccn1 (stereo unspecified),3.171,-0.8079,14.4
CC(=O)Nc1nc(COc2nc(C)no2)cs1,-,-3.274,-1.408
COc1ccccc1C1(CNc2cn[nH]c(=O)c2Cl)CC1,3.984,2.502,27.4
CCN1CCN(Cc2ccnc(-c3cccnc3)n2)CC1,3.611,3.858,22.22
Cc1ccc(OCCN2CCN(Cc3cnn(CCO)c3)CC2)cc1,-2.864,0.4905,5.505
CC(C)n1nc2c(cc1=O)CN(Cc1nnc(C3CC3)o1)CC2,-0.2105,4.907,24.53
c1csc(CN2CCc3onc(Cn4cccc4)c3C2)c1,8.811,1.474,26
CC(C)c1nc(CNCC2CCCN2c2cccnn2)cs1 (stereo unspecified),10.77,1.787,21.43
Cc1cc(C)n(CC2CCCCN2C(=O)c2ccc3c(c2)OCO3)n1 (stereo unspecified),7.953,1.184,6.757
CC(=O)N1CCC(c2n[nH]c3nccnc23)CC1,3.155,3.396,7.246
O=C(Cc1ccccn1)N1CCc2nc(-c3cnccn3)nc(O)c2C1,-12.22,-1.263,16.67
Cc1nn(C)c(N(C)C)c1CNCc1cccnc1OC(C)C,5.59,-1.433,15.79
O=C1CC2(CCCCN2C(=O)c2ccsc2)CN1CC1CC1 (stereo unspecified),0.4837,2.68,9.756
Cc1cc(C(=O)N2CCCC(c3cc(=O)nc4n3CCC4)C2)on1 (stereo unspecified),25.11 & 7.732,-0.03377,12.08
O=C(Cc1ccsc1)N1C[C@@H]2COC[C@]2(COc2cccnc2)C1,2.963,0.6587,15.45
CO[C@@H]1CCN(Cc2ccc(C)o2)[C@H]1Cc1ccccc1,-,11.87,18.97
COc1ccc(-c2noc(CNC(C)Cn3cccn3)n2)c(OC)c1 (stereo unspecified),-9.85,-5.194,28.79

For reference, 3 entries once more:

Compound,A,B,C
N#CC1(NC(=O)CN2CCc3c(ncn3C3CC3)C2)CCCC1,3.067,4.804,11.76
CCCS(=O)(=O)NC(=O)c1ccc(CC)o1,-1.071,-0.234,6.897
CCN1CCN(Cc2ccnc(-c3cccnc3)n2)CC1,3.611,3.858,22.22